Source: patent US20250002503A1, “OXADIAZASPIRO COMPOUNDS FOR USE IN THE TREATMENT OF MOTONEURON DEGENERATION OR IN NEUROPROTECTION” (ESTEVE PHARMACEUTICALS, S.A., priority 2021, published 2025)

Tested on: motoneurons (MNs) in spinal cord organotypic cultures
Assay: Spinal cord organotypic cultures (SCOCs) under THA chronic excitotoxicity, SMI-32 positive MN count
Format: cell-based, Sprague-Dawley rats
Conditions: THA 100 μM, 28 DIV; 5 μM
Procedure: SCOCs from lumbar sections of 8 day-old Sprague-Dawley rats were prepared as previously described (Mòdol-Caballero et al., 2017). Briefly, the spinal cord was collected and cut in 350 μm thick transverse sections with a Mcllwain Tissue Chopper. Four lumbar sections per sample were transferred onto Millicell-CM nets (0.4 μm, PICM03050, Millipore) in medium [50% (v/v) minimal essential medium (MEM, M5775, Sigma), 2 mM glutamine, 25 mM HEPES, 25% (v/v) Hank's Balanced Salt Solution (HBSS^−/−, 14175, Gibco) supplemented with 25.6 mg/ml glucose and 25% (v/v) heat-inactivated horse serum (26050-088, Gibco), pH=7.2]. Cultures were maintained at 37° C. in a 5% CO2 humidified cabin and let to stabilize. After 7 days in vitro (DIV), DL-threo-b-hydroxyaspartic acid (THA; 100 μM) was added to induce chronic excitotoxicity (Rothstein et al., 1993). The neuroprotective effect of each Sig-1R ligand was assessed by its coaddition to the culture with THA and renewing at each medium change. Compound A (in DMSO 100 mM) and Compound B (in PBS 1 mM) were tested at four concentrations (30, 3, 0.3 and 0.03 μM). […]
Slices were maintained for 28 DIV and then fixed with 4% paraformaldehyde. […] MN survival was assessed by counting all SMI-32 positive neurons in each spinal cord using the Cell Counter plugin of ImageJ software.

With Nc1nc2ccc(OC(F)(F)F)cc2s1 [Riluzole, reference compound] as the compound, how does the “preservation of MNs (SMI-32 positive), positive control” value read?
The value was “preserved MNs at levels of control cultures”.
